Reference: patent US20180256654A1, “USE OF LACTOBACILLUS PARACASEI STRAIN GMNL-653 TO PREPARE COMPOSITION FOR RESISTING BONE LOSS” (GENMONT BIOTECH INC., priority 2017, published 2018)

Experiments:
[1] = system: ovariectomized ICR female mice; experiment: Bone tissue analysis by micro computed tomography: trabecular bone volume ratio in the osteoporosis mouse model; assay type: in vivo; details: OVX mice, oral gavage for 28 days, right femur, mean±SD; OVX+H2O 30.9, sham control 42.12
Description: (§1) Preparation of dead bacteria: 1 μl Lactobacillus paracasei strain GMNL-653 and the Lactobacillus salivarius strain GMNL-678 frozen viral was inoculated to 1 ml of MRS broth, respectively, and aerobically incubated at 37° C. for 20 hours (first activation). The next day, adding 15 μl culture solution (first activation) into 1.5 ml of MRS broth, and then and aerobically incubated at 37° C. for 20 hours (secondary activation) Estimating the bacteria number by using OD 600 nm to adjust the bacteria concentration to 4.1×10^8 CFU/ml, and heat-killed bacteria was carried by autoclaving at 121° C. for 15 minutes. […]
(§2) Micro computed tomography (SkyScan 1076, Kontizh, Belgium, with resolution of 18 μm) was taken of the backbone of the right femur far from the end was taken, and the trabecular bone volume ratio (i.e. bone volume/tissue volume; BV/TV) was analyzed by a software. The analyzed position was selected to include the area of 100 pieces under the growth plate excluding cortical bone. […] The obtained data in the experiments were analyzed with two-way analysis of variance, and the T-test statistical analysis. […] After comparisons, the abovementioned groups were analyzed statistically and noted by different marks to represent the statistically significant differences (* represents p<0.05; ** represents p<0.01 See Table 3 and Table 4, showing the results of the experiment 1.

[2] = system: ovariectomized ICR female mice; experiment: Femur bone mineral density by micro computed tomography in the osteoporosis mouse model; assay type: in vivo; details: OVX mice, oral gavage for 28 days, right femur, mean±SD; OVX+H2O 0.344, sham control 0.502
Description: as §1, §2

Compound: NCCCC(O)(P(=O)(O)O)P(=O)(O)O [Alendronate]
- Trabecular bone volume ratio (BV/TV, bone volume/tissue volume) [1]: 34.88%
- Femur bone mineral density (BMD, excluding cortical bone) [2]: 0.426 g/mL
